From patent US8642545B2 (Jiangsu Hansoh Pharmaceutical Co., Ltd, priority 2007, dated 2014)
Some peptides are written in HELM: one residue between dots, names in brackets for other building blocks, links after the first $.

Test: general procedure: Fmoc solid-phase peptide synthesis; rink amind resin
Conditions: conjugation step

Substance	conjugation yield
PEPTIDE1{[ac].G.G.T.Y.S.C.H.F.G.A.L.T.W.V.C.R.P.Q.R.G.[bAla].[Lys_open].[am]}|PEPTIDE2{[ac].G.G.T.Y.S.C.H.F.G.A.L.T.W.V.C.R.P.Q.R.G.[bAla].[Lys_open].[am]}|CHEM1{[LG3core]}$PEPTIDE1,PEPTIDE1,7:R3-16:R3|PEPTIDE2,PEPTIDE2,7:R3-16:R3|PEPTIDE1,CHEM1,23:R3-1:R1|PEPTIDE2,CHEM1,23:R3-1:R2$$$V2.0	about 33%
PEPTIDE1{[ac].G.G.T.Y.S.C.H.F.G.P.L.T.W.V.C.R.P.Q.R.G.[bAla].[Lys_open].[am]}|PEPTIDE2{[ac].G.G.T.Y.S.C.H.F.G.P.L.T.W.V.C.R.P.Q.R.G.[bAla].[Lys_open].[am]}|CHEM1{[LG3core]}$PEPTIDE1,PEPTIDE1,7:R3-16:R3|PEPTIDE2,PEPTIDE2,7:R3-16:R3|PEPTIDE1,CHEM1,23:R3-1:R1|PEPTIDE2,CHEM1,23:R3-1:R2$$$V2.0	about 33%
PEPTIDE1{[ac].G.G.T.Y.S.C.H.F.G.S.L.T.W.V.C.R.P.Q.R.G.[bAla].[Lys_open].[am]}|PEPTIDE2{[ac].G.G.T.Y.S.C.H.F.G.S.L.T.W.V.C.R.P.Q.R.G.[bAla].[Lys_open].[am]}|CHEM1{[LG3core]}$PEPTIDE1,PEPTIDE1,7:R3-16:R3|PEPTIDE2,PEPTIDE2,7:R3-16:R3|PEPTIDE1,CHEM1,23:R3-1:R1|PEPTIDE2,CHEM1,23:R3-1:R2$$$V2.0	about 33%
PEPTIDE1{[ac].G.G.T.Y.S.C.[Nle].F.G.P.L.T.W.V.C.R.P.Q.R.G.[bAla].[Lys_open].[am]}|PEPTIDE2{[ac].G.G.T.Y.S.C.[Nle].F.G.P.L.T.W.V.C.R.P.Q.R.G.[bAla].[Lys_open].[am]}|CHEM1{[LG3core]}$PEPTIDE1,PEPTIDE1,7:R3-16:R3|PEPTIDE2,PEPTIDE2,7:R3-16:R3|PEPTIDE1,CHEM1,23:R3-1:R1|PEPTIDE2,CHEM1,23:R3-1:R2$$$V2.0	about 32.7%
